Data on one substance can be found in paper PMC10105460.

Sequences of proteins named here, by UniProt entry; tags and fusion partners are left off.
UniProt Q09472: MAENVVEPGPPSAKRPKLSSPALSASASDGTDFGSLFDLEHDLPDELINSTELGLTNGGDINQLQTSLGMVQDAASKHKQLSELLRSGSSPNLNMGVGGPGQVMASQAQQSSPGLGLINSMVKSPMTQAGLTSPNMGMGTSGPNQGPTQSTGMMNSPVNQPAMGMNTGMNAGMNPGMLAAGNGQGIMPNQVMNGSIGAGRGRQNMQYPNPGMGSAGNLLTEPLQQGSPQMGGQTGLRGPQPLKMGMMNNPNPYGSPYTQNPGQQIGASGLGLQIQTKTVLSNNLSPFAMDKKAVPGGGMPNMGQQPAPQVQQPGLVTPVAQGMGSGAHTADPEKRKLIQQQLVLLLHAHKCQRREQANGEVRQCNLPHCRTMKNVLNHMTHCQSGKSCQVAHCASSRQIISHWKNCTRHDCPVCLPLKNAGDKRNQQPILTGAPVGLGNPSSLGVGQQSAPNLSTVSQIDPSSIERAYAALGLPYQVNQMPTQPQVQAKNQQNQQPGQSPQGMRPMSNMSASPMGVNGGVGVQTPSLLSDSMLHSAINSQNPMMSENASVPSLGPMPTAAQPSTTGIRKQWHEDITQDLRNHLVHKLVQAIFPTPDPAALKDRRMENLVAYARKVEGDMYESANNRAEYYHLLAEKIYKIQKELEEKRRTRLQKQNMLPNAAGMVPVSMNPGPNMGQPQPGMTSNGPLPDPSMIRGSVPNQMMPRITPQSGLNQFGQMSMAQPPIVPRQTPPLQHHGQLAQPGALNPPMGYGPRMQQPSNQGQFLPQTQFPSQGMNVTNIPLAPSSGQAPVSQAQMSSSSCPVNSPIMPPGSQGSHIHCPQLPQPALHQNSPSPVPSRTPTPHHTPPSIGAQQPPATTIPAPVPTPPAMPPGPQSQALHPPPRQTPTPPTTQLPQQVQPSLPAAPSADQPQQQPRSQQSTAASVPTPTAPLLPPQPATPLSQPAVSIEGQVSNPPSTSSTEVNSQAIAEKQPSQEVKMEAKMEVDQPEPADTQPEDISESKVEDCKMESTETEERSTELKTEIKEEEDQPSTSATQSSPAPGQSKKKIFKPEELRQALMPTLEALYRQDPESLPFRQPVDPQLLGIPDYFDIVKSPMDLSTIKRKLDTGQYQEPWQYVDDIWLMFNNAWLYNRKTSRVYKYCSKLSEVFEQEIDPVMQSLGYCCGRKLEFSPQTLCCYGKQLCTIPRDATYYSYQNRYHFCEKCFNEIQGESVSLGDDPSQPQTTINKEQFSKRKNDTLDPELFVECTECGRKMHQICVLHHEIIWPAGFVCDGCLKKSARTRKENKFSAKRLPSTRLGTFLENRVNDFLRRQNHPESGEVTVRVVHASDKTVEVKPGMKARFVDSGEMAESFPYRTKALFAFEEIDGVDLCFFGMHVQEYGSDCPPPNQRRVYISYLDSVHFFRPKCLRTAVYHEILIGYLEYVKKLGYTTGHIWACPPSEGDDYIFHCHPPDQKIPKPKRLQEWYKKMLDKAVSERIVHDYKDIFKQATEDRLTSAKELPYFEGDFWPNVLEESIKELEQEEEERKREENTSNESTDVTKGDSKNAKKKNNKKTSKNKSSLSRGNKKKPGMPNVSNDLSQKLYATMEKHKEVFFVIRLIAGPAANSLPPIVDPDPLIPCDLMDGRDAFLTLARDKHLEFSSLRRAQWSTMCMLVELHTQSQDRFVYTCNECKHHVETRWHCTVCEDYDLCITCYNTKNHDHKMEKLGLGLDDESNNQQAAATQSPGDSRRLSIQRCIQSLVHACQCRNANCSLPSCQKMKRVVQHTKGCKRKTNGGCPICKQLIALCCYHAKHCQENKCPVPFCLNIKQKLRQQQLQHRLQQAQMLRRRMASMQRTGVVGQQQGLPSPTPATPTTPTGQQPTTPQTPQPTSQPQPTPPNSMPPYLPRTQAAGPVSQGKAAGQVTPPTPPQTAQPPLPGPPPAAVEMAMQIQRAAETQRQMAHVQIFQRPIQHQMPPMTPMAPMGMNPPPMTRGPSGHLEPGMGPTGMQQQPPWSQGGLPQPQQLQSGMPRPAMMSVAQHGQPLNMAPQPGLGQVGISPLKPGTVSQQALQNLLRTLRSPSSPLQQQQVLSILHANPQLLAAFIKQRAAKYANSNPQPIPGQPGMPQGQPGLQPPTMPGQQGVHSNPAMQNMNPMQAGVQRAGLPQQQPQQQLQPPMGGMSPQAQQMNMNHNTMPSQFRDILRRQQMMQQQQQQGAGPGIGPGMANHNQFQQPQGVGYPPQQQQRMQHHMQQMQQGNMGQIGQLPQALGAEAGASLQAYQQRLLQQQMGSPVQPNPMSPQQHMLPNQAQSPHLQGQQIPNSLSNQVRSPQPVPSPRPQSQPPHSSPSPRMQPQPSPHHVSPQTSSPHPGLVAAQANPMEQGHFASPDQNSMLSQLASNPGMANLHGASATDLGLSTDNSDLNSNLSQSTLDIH
UniProt P25490: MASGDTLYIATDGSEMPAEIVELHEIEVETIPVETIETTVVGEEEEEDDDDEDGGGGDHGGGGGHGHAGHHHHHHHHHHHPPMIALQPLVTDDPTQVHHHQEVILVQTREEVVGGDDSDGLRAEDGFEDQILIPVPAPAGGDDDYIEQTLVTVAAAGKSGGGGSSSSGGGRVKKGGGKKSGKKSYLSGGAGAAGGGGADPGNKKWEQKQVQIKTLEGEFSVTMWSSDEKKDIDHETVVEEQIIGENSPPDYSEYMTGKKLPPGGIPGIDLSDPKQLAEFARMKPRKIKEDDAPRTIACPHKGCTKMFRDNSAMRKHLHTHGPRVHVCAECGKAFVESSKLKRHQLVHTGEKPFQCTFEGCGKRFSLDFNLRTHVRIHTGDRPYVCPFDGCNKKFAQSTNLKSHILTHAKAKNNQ

These are yes or no findings as the source states them, for the method shown. Binding seen in cells or lysates may run through a third protein. Some binding calls cover weakened binding; strength is not graded here.

The assay has as its target EP300 (human (endogenous in PC9 and A549)) (UniProt Q09472). Description: co-IP; lysates of PC9 and A549 cells in IP buffer (1 mM EDTA, 20 mM HEPES, 150 mM NaCl, 0.05% sodium deoxycholate, 0.05% NP-40, protease and phosphatase inhibitors); indicated antibody and protein A/G PLUS agarose beads overnight at 4 °C; detection by Western blotting.

In the case of YY1 (from UniProt P25490 1-414), the binding entry is on record as “binds”.
